Experimental data from PubChem BioAssay AID743255 (National Center for Advancing Translational Sciences (NCATS), 2014).
Screen size: about 390,000 compounds; about 910 (0.23%) were called active. The inconclusive results got no clear call from the source; some entries with a clear call stand among them for comparison. The call rests on the fitted dose curve; in most records, active means well fitted inhibition curve with a large enough effect; inconclusive means small, poorly fitted or top-dose-only effect; inactive means no such curve, though single readings can be large or run the other way. A potency beside an inconclusive call is a rough fit, not a confirmed value.

Protein sequences, listed by entry. Tags and fused reporters are not part of them. Lines headed by an entry give the natural chain unless they say otherwise; changes in a name come on top.
UniProt O94782: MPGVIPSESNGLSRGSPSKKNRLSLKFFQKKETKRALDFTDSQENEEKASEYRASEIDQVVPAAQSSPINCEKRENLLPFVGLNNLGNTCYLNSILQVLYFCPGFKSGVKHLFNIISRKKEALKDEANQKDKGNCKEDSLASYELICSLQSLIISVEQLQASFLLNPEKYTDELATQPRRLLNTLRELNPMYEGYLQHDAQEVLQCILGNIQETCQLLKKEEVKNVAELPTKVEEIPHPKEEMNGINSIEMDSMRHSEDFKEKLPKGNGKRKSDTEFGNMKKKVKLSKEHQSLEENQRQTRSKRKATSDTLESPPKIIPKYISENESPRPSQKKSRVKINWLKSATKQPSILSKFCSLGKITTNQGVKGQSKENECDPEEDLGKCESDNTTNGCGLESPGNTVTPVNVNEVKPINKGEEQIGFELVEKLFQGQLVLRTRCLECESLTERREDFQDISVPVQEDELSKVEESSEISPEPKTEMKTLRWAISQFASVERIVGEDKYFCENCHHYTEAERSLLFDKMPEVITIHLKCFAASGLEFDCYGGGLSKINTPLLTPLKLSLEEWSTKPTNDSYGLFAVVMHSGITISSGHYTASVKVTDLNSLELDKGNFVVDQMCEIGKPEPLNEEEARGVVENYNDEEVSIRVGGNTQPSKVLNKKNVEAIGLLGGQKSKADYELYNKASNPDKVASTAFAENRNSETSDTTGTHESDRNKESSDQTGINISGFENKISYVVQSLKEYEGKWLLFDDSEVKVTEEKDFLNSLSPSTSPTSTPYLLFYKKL

These compounds were tested against Ubiquitin carboxyl-terminal hydrolase 1 (Homo sapiens) (UniProt O94782) (assay: Inhibitors of USP1/UAF1: Primary Screen). Conditions: recombinant USP1/UAF1, Ub-Rhodamine cleavage fluorescence; activity change, negative = inhibition: at 57.1 µM (top of the series).
How it was run: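 High-throughput fluorogenic screen: 1nM USP1/UAF1 complex, Ub-Rho substrate 150nM final, 50mM HEPES pH 7.8 with 0.5mM EDTA, 0.1 mg/ml BSA, 1mM TCEP and 0.01% Tween-20.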
Further: nearly all actives have a fitted effect of over 60% in size.
On the % scale 0 is the no-effect control and ±100 the full control effect; potency means the concentration at half of the fitted maximal effect.

Row | SMILES | Potency | activity change, negative = inhibition
1 | Cc1ccc(C(=O)Nc2ccc3oc(-c4cccnc4)nc3c2)c(Cl)c1 | inconclusive: 0.708 µM [inhibitor, full curve, poor fit] | 
2 | CN(C)c1ccc(C(O)Cc2nc3ccccc3n2C)cc1 (stereo not given) | inactive | 
3 | O=C(NCc1ccco1)c1cccc2c1C(=O)c1ccc(/C=C/c3ccccc3)cc1S2(=O)=O | inactive | 
4 | Oc1ccccc1N=Nc1nc(-c2ccccc2)c(-c2ccccc2)[nH]1 | inactive | 
5 | Cc1ccc(S(=O)(=O)N2CCC(=O)N(CCOCc3ccc(C(F)(F)F)cc3)CC2)cc1 | inconclusive: 8.91 µM [inhibitor, partial curve] | 
6 | O=C1C2CC=CCC2C(=O)N1Cc1ccccc1 (stereo not given) | inconclusive: 35.5 µM [inhibitor, single point] | 
7 | O=C(NC(Cc1c[nH]c2ccccc12)C(=O)OCC(=O)c1cccc2ccccc12)c1cccs1 (stereo not given) | inconclusive: 31.6 µM [inhibitor, partial curve] | 
8 | CC(C)(C)Cc1c(-c2ccc(F)cc2)nc2ccc(Br)cn12 | inconclusive: 44.7 µM [inhibitor, partial curve, poor fit] | 
9 | O=C(NN=Cc1ccc(N2CCOCC2)cc1)c1cc2ccccc2cc1O | inconclusive: 17.8 µM [inhibitor, partial curve] | 
10 | CCCCOc1ccc(CNC(=O)c2ccc(NC(=O)N3CCSc4ncccc43)cc2)cc1 | inconclusive: 10 µM [inhibitor, partial curve, poor fit] | 
11 | Cc1cccc(N2C(=O)c3cccc4c(N(C)CCO)ccc(c34)C2=O)c1 | active: 28.2 µM | 
12 | Cc1cc(=O)oc2cc(NC(=S)NCc3ccccn3)ccc12 | inactive | 
13 | CCOC(=O)c1c2c(n(Cc3ccccc3)c1C)C(=O)C(=O)c1ccccc1-2 | active: 2.51 µM | 
14 | c1ccc(-c2sc3ccccc3c2-c2ccc(OCCN3CCCC3)cc2)cc1 | inconclusive: 44.7 µM [inhibitor, partial curve, poor fit] | 
15 | COC(=O)C[C@H]1c2cc(F)cc(F)c2S(=O)(=O)N1C1CCN(Cc2ccccc2)CC1 | inconclusive: 2.82 µM [inhibitor, full curve] | 
16 | COc1ccccc1C1OCC(C)(C)CO1 | inconclusive: 4.47 µM [inhibitor, single point] | 
17 | O=C(CCCC(=O)OCC(=O)c1cccs1)Nc1ccc(Oc2ccccc2)cc1 | inactive | 
18 | C=C1CCC(N(O)c2cc(C)on2)C(=C)CCC2C1CC2(C)C (stereo not given) | inconclusive: 56.2 µM [inhibitor, partial curve, poor fit] | 
19 | COc1ccc(S(=O)(=O)N(CC(=O)N/N=C/c2ccc(C(=O)O)cc2)Cc2ccccc2)cc1OC |  | inconclusive: -27.9% [inhibitor]
20 | O=C1NCCCCC1NS(=O)(=O)c1ccccc1 (stereo not given) | inconclusive: 39.8 µM [inhibitor, partial curve] | 
21 | CCCN(C(=O)/C=C/c1nc2ccccc2s1)C1CCS(=O)(=O)C1 (stereo not given) | inactive | 
22 | CCC(C)Nc1nc(-c2c[nH]c3ccccc23)cs1 (stereo not given) | inconclusive: 44.7 µM [inhibitor, partial curve, poor fit] | 
23 | CCOC(=O)CN(C(=O)CSc1nnc2c(n1)[nH]c1ccc(OC)cc12)c1ccc(F)cc1 | inactive | 

Compounds shown so far with an aryl methoxy group (3):
Row | SMILES | Potency | activity change, negative = inhibition
16 | COc1ccccc1C1OCC(C)(C)CO1 | inconclusive: 4.47 µM [inhibitor, single point] | 
19 | COc1ccc(S(=O)(=O)N(CC(=O)N/N=C/c2ccc(C(=O)O)cc2)Cc2ccccc2)cc1OC |  | inconclusive: -27.9% [inhibitor]
23 | CCOC(=O)CN(C(=O)CSc1nnc2c(n1)[nH]c1ccc(OC)cc12)c1ccc(F)cc1 | inactive | 

(next part)

Row | SMILES | Potency | activity change, negative = inhibition
24 | COc1ccc(NC(=O)c2cc3cccc(OC)c3oc2=Nc2ccc(C(=O)O)cc2)cc1OC | inactive | 
25 | FC(F)(F)c1ccc(/C=N/n2c(COc3ccccc3)n[nH]c2=S)cc1 | inactive | 
26 | CC1C(=O)CCC1(C(=O)O)c1ccccc1 (stereo not given) | inactive | 
27 | COCCNC(=O)/C(C#N)=C/c1ccc(N2CCOCC2)o1 | inconclusive: 39.8 µM [inhibitor, partial curve] | 
28 | Cc1ccc2nc(-c3ccccc3N)[nH]c2c1 | inactive | 
29 | O=C(NC(=O)c1ccc(Cl)cc1)OC1CCCCC1 | inactive | 
30 | N#Cc1c(NC(=O)Cn2c(=O)oc3ccccc32)oc(-c2ccccc2)c1-c1ccccc1 | inconclusive: 2 µM [inhibitor, full curve, poor fit] | 
31 | COc1ccc(-c2c(C#N)c(N)nc3c2CCc2ccccc2-3)cc1OC | inconclusive: 44.7 µM [inhibitor, partial curve, poor fit] | 
32 | COc1ccc(CN(C)C(=O)CNC(=O)c2ccc3ccccc3c2)c(OC)c1 | inconclusive: 56.2 µM [inhibitor, partial curve, poor fit] | 
33 | Cc1oc(=O)c(NC(=O)c2cccc(Cl)c2)cc1C(=O)c1ccccc1 | inconclusive: 8.91 µM [inhibitor, full curve] | 
34 | O=C(CN1CCCC1)N/N=C/c1c(O)ccc2ccccc12 | inconclusive: 39.8 µM [inhibitor, partial curve] | 
35 | COc1cccc(CN2C(=O)c3ccccc3Sc3ccc(C(=O)NCCc4ccc(C)cc4)cc32)c1 | inconclusive: 0.708 µM [inhibitor, full curve, poor fit] | 
36 | CC1Cc2nc(SCC(=O)Nc3nccs3)n(Cc3ccccc3)c(=O)c2S1 (stereo not given) | inconclusive: 12.6 µM [inhibitor, partial curve] | 
37 | Cc1cc(N2CCOCC2)nc(NCc2ccccc2)n1 | inactive | 
38 | Cc1ccc(NC(=O)C2CCN(C(=O)[C@@H]3Cc4ccccc4CN3)CC2)cc1 | inactive | 
39 | N=C1C=CC=C2C1=NC1(CCCCC1)N2O | inconclusive: 50.1 µM [inhibitor, single point] | 
40 | O=C1c2ccccc2C(=O)N1CCc1ccccc1 | inactive | 
41 | O=C(CNc1ccc(F)cc1)N/N=C/c1c(O)ccc2ccccc12 | inconclusive: 7.94 µM [inhibitor, partial curve] | 
42 | COc1cccc2c1OC1(N3CCOCC3)CCCCC1C2C[N+](=O)[O-] (stereo not given) | inconclusive: 5.62 µM [inhibitor, partial curve] | 
43 | COc1cc(C2C(C#N)=C(N)Oc3cc(N(C)C)ccc32)cc2c1OCO2 (stereo not given) | inconclusive: 39.8 µM [inhibitor, partial curve, poor fit] | 
44 | Nc1ccc2nc(-c3cc(Cl)c(N)c(Cl)c3)[nH]c2c1 | inconclusive: 15.8 µM [inhibitor, partial curve] | 
45 | COc1ccc(O)c(C(=O)/C=C/c2cc3ccccc3o2)c1 | inconclusive: 1.58 µM [inhibitor, partial curve, poor fit] | 
